{"source": "patent US12019083B2", "about": "“Compound distribution in microfluidic devices” (EMULATE, Inc., priority 2019, dated 2024)", "assay": "Time-dependent material absorption test in vials, PDMS", "format": "physicochemical", "conditions": "recovered concentration compared to dosing concentration", "data": [{"smiles": "CN1C(=O)CN=C(c2ccccc2)c2cc(Cl)ccc21", "note": "[Diazepam]", "values": [{"measurement": "absorption into PDMS", "result": "absorb into PDMS"}]}]}
